Record: PubChem BioAssay AID504764 (Drosophila RNAi Screening Center, 2011)

Aim: 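Genes whose knock-down alters Notch-dependent transcription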 (primary screen)
Cells: Drosophila Kc167 cells
Reagents: long dsRNA against Drosophila genes
Timing: about 5 days (4 days dsRNA, then 24 h after transfection)
Conditions: transfection of constitutively active membrane-tethered Notch lacking the extracellular domain, read 24 h later
Read-out: 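Light from a Notch-responsive E(spl)m3 luciferase reporter under active Notch, with control-promoter and no-Notch reporter wells to normalise; raw counts from paired wells a and b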
Reading the numbers: induced reporter light, run 1, well a and induced reporter light, run 1, well b: higher = more light from the Notch target reporter with active Notch; control promoter light, run 1, well a and control promoter light, run 1, well b: higher = more light from the viral control promoter (cell number, transfection, viability); uninduced reporter light, run 1, well a: higher = more light from the Notch target reporter without active Notch
Call rule: 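Hit if the duplicate-averaged log2 ratio of induced to control-promoter light gives a plate-wise z beyond ±2, or induced to uninduced beyond ±1.8; weak-control or discordant-duplicate wells dropped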
Meaning of the calls: active = modifier hit (raised or lowered Notch signal); inactive = not a hit
The screen tested about 22,000 reagents; below is an unselected part of those that have a named target and a result. Over the whole deposit, 403 (1.9%) got an active call. 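Unnormalised raw counts per well; ratio z-scores behind the hit calls and whether each hit raises or lowers signal are not deposited.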 The numbers tell different reagents against one gene apart. A plus sign joins genes that one reagent is predicted to hit. The record does not give: the amount of reagent.

target,reagent no.,"induced reporter light, run 1, well a","induced reporter light, run 1, well b","control promoter light, run 1, well a","control promoter light, run 1, well b","uninduced reporter light, run 1, well a",outcome
Myo31DF (GeneID 34445),1,2.28e5,2.71e5,2.64e5,2.70e5,20045,inactive
CG11257 (GeneID 37227),1,98775,1.02e5,1.33e5,1.42e5,9535,inactive
Phb1 (GeneID 49168),1,1.71e5,1.48e5,1.29e5,1.19e5,12165,inactive
CG15548 (GeneID 43667),1,1.55e5,1.11e5,2.21e5,2.44e5,11075,inactive
Cpsf160 (GeneID 44250),1,77290,96510,78395,57950,6055,inactive
CG14830 (GeneID 38800),1,1.76e5,1.76e5,2.10e5,3.32e5,10950,active
CG14830 (GeneID 38800),2,3.24e5,2.24e5,2.36e5,2.46e5,12138,inactive
Ir48a (GeneID 3772197),1,1.61e5,1.72e5,2.38e5,2.29e5,19155,inactive
rt (GeneID 39297),1,1.10e5,1.05e5,1.86e5,1.41e5,7040,inactive
CG7747 (GeneID 36820),1,1.02e5,1.27e5,2.46e5,2.44e5,9720,inactive
CG11030 (GeneID 33805),1,1.43e5,1.22e5,1.45e5,95665,7140,inactive
ytr (GeneID 47457),1,2.06e5,2.43e5,1.50e5,1.91e5,13655,inactive
ytr (GeneID 47457),2,,,,,,inactive
CG13731 (GeneID 39938),1,1.91e5,2.15e5,2.63e5,2.17e5,5780,inactive
CG8785 (GeneID 36391),1,1.69e5,1.80e5,1.51e5,1.54e5,12982,inactive
CG9010 (GeneID 36904),1,89060,93185,2.04e5,1.63e5,8700,inactive
CG42748 (GeneID 35442),1,47505,48220,36175,34390,2875,inactive
CG42748 (GeneID 35442),2,79865,74405,46595,55770,4175,inactive
CG42748 (GeneID 35442),3,56835,54745,49930,30375,2915,inactive
CG8004 (GeneID 40178),1,1.16e5,1.24e5,74685,92880,9070,inactive
CG3526 (GeneID 31277),1,61030,84645,87460,89230,5280,inactive
CG3526 (GeneID 31277),2,1.09e5,1.09e5,1.67e5,1.78e5,7430,inactive
CG10365 (GeneID 42801),1,2.28e5,1.98e5,2.46e5,2.02e5,17840,inactive
CAH7 (GeneID 41238),1,30860,29550,37585,26145,1905,inactive
vis + achi,1,76295,81405,66470,70410,6325,inactive
CG14839 (GeneID 41736),1,2.22e5,2.19e5,2.48e5,2.12e5,17495,inactive
Sply (GeneID 46059),1,1.49e5,1.66e5,2.48e5,2.40e5,13455,inactive
UQCR-6.4 (GeneID 36991),1,61495,54330,67465,92550,7715,inactive
Pits (GeneID 32205),1,1.06e5,1.01e5,1.37e5,1.49e5,7350,inactive
Pits (GeneID 32205),2,92050,88485,1.50e5,1.05e5,5855,inactive

Targets listed so far whose target name starts with P or p (3):
target,reagent no.,"induced reporter light, run 1, well a","induced reporter light, run 1, well b","control promoter light, run 1, well a","control promoter light, run 1, well b","uninduced reporter light, run 1, well a",outcome
Phb1 (GeneID 49168),1,1.71e5,1.48e5,1.29e5,1.19e5,12165,inactive
Pits (GeneID 32205),1,1.06e5,1.01e5,1.37e5,1.49e5,7350,inactive
Pits (GeneID 32205),2,92050,88485,1.50e5,1.05e5,5855,inactive

The listing continues.
target,reagent no.,"induced reporter light, run 1, well a","induced reporter light, run 1, well b","control promoter light, run 1, well a","control promoter light, run 1, well b","uninduced reporter light, run 1, well a",outcome
ms(2)35Ci (GeneID 49529),1,63950,55115,70505,50440,6420,inactive
Rack1 (GeneID 34070),1,91425,1.05e5,53490,65065,12935,inactive
LanB2 (GeneID 39118),1,87420,1.02e5,65805,35275,10478,inactive
Pgm2b (GeneID 36649),1,1.37e5,1.65e5,1.69e5,1.29e5,12610,inactive
Eo (GeneID 32423),1,1.09e5,96170,1.15e5,98155,11050,inactive
yl (GeneID 32367),1,82505,91740,88100,87535,11610,inactive
AGO3 (GeneID 3355150),1,,,,,,inactive
Hmx (GeneID 42110),1,2.27e5,2.37e5,2.24e5,2.14e5,20545,inactive
Hmx (GeneID 42110),2,1.65e5,1.73e5,1.35e5,1.32e5,12600,inactive
Hmx (GeneID 42110),3,,,,,,inactive
CG3776 (GeneID 37996),1,2.63e5,2.50e5,2.34e5,2.40e5,13725,active
CG33252 (GeneID 2768903),1,85425,1.01e5,93545,79130,6955,inactive
Ir75c (GeneID 39983),1,2.22e5,1.56e5,2.46e5,2.72e5,9565,inactive
Dhc64C (GeneID 38580),1,1.12e5,1.27e5,1.06e5,49330,11655,inactive
Trf4 (GeneID 33452),1,1.03e5,92690,1.03e5,83670,8865,inactive
CG6966 (GeneID 41816),1,2.21e5,2.44e5,2.29e5,2.27e5,19420,inactive
snoRNA:U31:54Ec + snoRNA:snR38:54Eb + snoRNA:U27:54Eb + 8 more,1,49500,28385,40075,44535,4388,inactive
Drp1 (GeneID 33445),1,1.41e5,1.32e5,1.48e5,1.45e5,14392,inactive
bsk (GeneID 44801),1,1.96e5,1.95e5,1.65e5,1.50e5,18010,inactive
Tcs5 (GeneID 38600),1,2.19e5,2.06e5,3.20e5,2.67e5,11145,inactive
CG5958 (GeneID 34022),1,71565,50470,52735,65645,4310,inactive
Nacalpha (GeneID 36409),1,68955,66885,45640,47095,5260,inactive
Sqor (GeneID 38514),1,1.23e5,1.28e5,1.20e5,56300,13325,inactive
CG13838 (GeneID 42719),1,1.97e5,1.70e5,1.93e5,1.93e5,13410,inactive
CG5773 (GeneID 37053),1,52385,62945,73410,65830,4640,inactive
CG10254 (GeneID 42793),1,1.74e5,1.63e5,2.14e5,2.78e5,13855,inactive
CG17780 + CG17781,1,1.43e5,1.54e5,1.71e5,1.65e5,12100,inactive
scramb2 (GeneID 38362),1,99540,73930,1.83e5,1.12e5,5232,inactive
CG15358 (GeneID 33366),1,1.40e5,81155,78130,54125,6955,inactive
ProRS-m (GeneID 38331),1,1.10e5,1.51e5,1.92e5,1.74e5,8775,inactive
Art6 (GeneID 41699),1,2.69e5,2.67e5,2.51e5,2.45e5,21035,inactive
CG13000 (GeneID 32685),1,49885,47455,47300,41080,7565,inactive
ppk6 (GeneID 37286),1,45530,40670,42065,48830,3805,inactive
Ork1 (GeneID 32020),1,1.81e5,1.51e5,2.30e5,2.08e5,11595,inactive
